PubChem BioAssay AID504793 – Drosophila RNAi Screening Center – 2011
The deposit covers about 23,000 reagents; below is a random part of those that have a named target and a result. Of all reagents, 62 (0.27%) got an active call. 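Calls come from follow-up tests whose scores are not deposited, so confirmed genes may have low counts here; counts are not normalised per plate.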 Raw values vary from plate to plate and are shown uncorrected. A plus sign joins genes that one reagent is predicted to hit.

Test: 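Whole-genome screen for parts of the DNA damage checkpoint at G2/M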 (primary screen)
Cells: Drosophila S2R+ cells
Reagent: long dsRNA against Drosophila genes, about 0.25 µg dsRNA per well
Duration: 4 days of dsRNA, then 4 hours of drug before read-out
Conditions: doxorubicin 0.5 µM for 4 hours to cause double-strand breaks, in cells also given a low, harmless dose of dsRNA against nbs to sensitise the assay
Read-out: 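Per-well count of mitotic cells stained for phospho-histone H3 after doxorubicin exposure, used as mitotic index; counts are raw and not normalised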
Reading the numbers: mitotic cells: higher = more cells in mitosis, weaker G2 arrest
Call rule: 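a call needs confirmation in secondary tests, with other dsRNAs and a check of mitotic timing without damage, not just a high primary count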
Meaning of the calls: active = confirmed in follow-up tests; inactive = not confirmed

| mitotic cells, replicate 1 | mitotic cells, replicate 2 | Call | Gene | amplicon |
| --- | --- | --- | --- | --- |
| 2 | – | inactive | CG12009 (GeneID 38405) | DRSC08217 |
| 5 | – | inactive | CG12009 (GeneID 38405) | DRSC26937 |
| 5 | – | inactive | Loxl2 (GeneID 37485) | DRSC04469 |
| 7 | – | inactive | AP-1mu (GeneID 41150) | DRSC14089 |
| 9 | – | inactive | AP-1mu (GeneID 41150) | DRSC25744 |
| 54 | – | inactive | Rpn11 (GeneID 33738) | DRSC03422 |
| 6 | – | inactive | eEF1beta (GeneID 45249) | DRSC07419 |
| 6 | – | inactive | eEF1beta (GeneID 45249) | DRSC24367 |
| 6 | – | inactive | NimB5 (GeneID 34815) | DRSC01885 |
| 6 | – | inactive | CG32111 (retired record) (GeneID 317859) | DRSC09203 |
| 8 | – | inactive | Pur-alpha (GeneID 43797) | DRSC17166 |
| 6 | – | inactive | CG15919 (GeneID 50216) | DRSC06594 |
| 4 | – | inactive | meso18E (GeneID 53448) | DRSC20351 |
| 6 | – | inactive | meso18E (GeneID 53448) | DRSC25315 |
| 8 | – | inactive | Ude (GeneID 42953) | DRSC15324 |
| 2 | – | inactive | SIFa (GeneID 3346202) | DRSC04480 |
| 3 | – | inactive | chinmo (GeneID 33343) | DRSC00485 |
| 4 | – | inactive | chinmo (GeneID 33343) | DRSC00509 |
| 14 | – | inactive | chinmo (GeneID 33343) | DRSC22413 |
| 1 | – | inactive | chinmo (GeneID 33343) | DRSC28547 |
| 24 | – | inactive | ocm (GeneID 37874) | DRSC04360 |
| 11 | – | inactive | ocm (GeneID 37874) | DRSC26248 |
| 11 | – | inactive | NUCB1 (GeneID 39978) | DRSC22137 |
| 6 | – | inactive | NUCB1 (GeneID 39978) | DRSC29109 |
| 9 | – | inactive | Abcd3 (GeneID 32992) | DRSC19488 |
| 5 | – | inactive | Abcd3 (GeneID 32992) | DRSC29341 |
| 6 | – | inactive | Tengl2 (GeneID 318044) | DRSC21968 |
| 5 | – | inactive | Tengl2 (GeneID 318044) | DRSC29284 |
| 9 | – | inactive | Balat (GeneID 36417) | DRSC06852 |
| 5 | – | inactive | CG42818 + Ca-Ma2d | DRSC01963 |
| 7 | – | inactive | CG42818 + Ca-Ma2d | DRSC29730 |
| 4 | – | inactive | CG17562 (GeneID 42021) | DRSC15243 |
| 2 | – | inactive | CG11436 (GeneID 31386) | DRSC17783 |
| 6 | – | inactive | Rga (GeneID 40683) | DRSC12364 |
| 10 | – | inactive | Rga (GeneID 40683) | DRSC29179 |
| 4 | – | inactive | puc (GeneID 40958) | DRSC17034 |
| 7 | – | inactive | puc (GeneID 40958) | DRSC26308 |
| 5 | – | inactive | Dlip1 (GeneID 53580) | DRSC18460 |
| 5 | – | inactive | Rab2 (GeneID 35577) | DRSC05017 |
| 10 | – | inactive | Rab2 (GeneID 35577) | DRSC26810 |
| 8 | – | inactive | Tdc1 (GeneID 35573) | DRSC04942 |
| 9 | – | inactive | CG7069 (GeneID 42621) | DRSC16188 |
| 2 | – | inactive | mon2 (GeneID 326157) | DRSC03112 |
| 12 | – | inactive | CG32750 (GeneID 326238) | DRSC18848 |
| 5 | – | inactive | sgg (GeneID 31248) | DRSC17228 |
| 9 | – | inactive | sgg (GeneID 31248) | DRSC17722 |
| 10 | – | inactive | sgg (GeneID 31248) | DRSC18832 |
| 22 | – | inactive | sgg (GeneID 31248) | DRSC23946 |
| 8 | 9 | inactive | Cyp6d2 (GeneID 37594) | DRSC04606 |
| 9 | – | inactive | Cyp6d2 (GeneID 37594) | DRSC25647 |
| 12 | – | inactive | yin (GeneID 31340) | DRSC18854 |
| 15 | – | inactive | yin (GeneID 31340) | DRSC21889 |
| 5 | – | inactive | Or82a (GeneID 318778) | DRSC11996 |
| 2 | – | inactive | wb (GeneID 43946) | DRSC01375 |
| 4 | – | inactive | wb (GeneID 43946) | DRSC03634 |
| 8 | – | inactive | wb (GeneID 43946) | DRSC23003 |
| 9 | – | inactive | wb (GeneID 43946) | DRSC39164 |
| 5 | – | inactive | CG15382 (GeneID 33391) | DRSC00397 |
| 4 | – | inactive | CG15382 (GeneID 33391) | DRSC24805 |
| 10 | – | inactive | Ttc1 (GeneID 41993) | DRSC15016 |
| 9 | – | inactive | Ttc1 (GeneID 41993) | DRSC22469 |
| 2 | – | inactive | Ttc1 (GeneID 41993) | DRSC26111 |
| 6 | – | inactive | CG7289 (GeneID 33372) | DRSC00697 |
| – | – | inactive | CG15429 (GeneID 33637) | DRSC00444 |
| 10 | – | inactive | CG15429 (GeneID 33637) | DRSC26501 |
| 5 | – | inactive | lncRNA:CR32553 (GeneID 318087) | DRSC19229 |
| 3 | – | inactive | CG4676 (GeneID 36465) | DRSC06879 |
| 3 | – | inactive | ko (GeneID 40330) | DRSC11893 |
| 8 | – | inactive | ko (GeneID 40330) | DRSC26598 |
| 11 | – | inactive | CG32679 (GeneID 318150) | DRSC17644 |
| 19 | – | inactive | PIP82 (GeneID 31791) | DRSC18694 |
| 3 | – | inactive | PIP82 (GeneID 31791) | DRSC25335 |
| 4 | – | inactive | mRpL41 (GeneID 36688) | DRSC06257 |
| 13 | – | inactive | mRpL41 (GeneID 36688) | DRSC29395 |
| 14 | – | inactive | Ir62a (GeneID 3885628) | DRSC08250 |

Not a retest: an excerpt of the list.
| mitotic cells, replicate 1 | mitotic cells, replicate 2 | Call | Gene | amplicon |
| --- | --- | --- | --- | --- |
| 9 | – | inactive | Balat (GeneID 36417) | DRSC06852 |
| 5 | – | inactive | CG42818 + Ca-Ma2d | DRSC01963 |
| 7 | – | inactive | CG42818 + Ca-Ma2d | DRSC29730 |
| 4 | – | inactive | CG17562 (GeneID 42021) | DRSC15243 |
| 2 | – | inactive | CG11436 (GeneID 31386) | DRSC17783 |
| 6 | – | inactive | Rga (GeneID 40683) | DRSC12364 |
| 10 | – | inactive | Rga (GeneID 40683) | DRSC29179 |
| 4 | – | inactive | puc (GeneID 40958) | DRSC17034 |
| 7 | – | inactive | puc (GeneID 40958) | DRSC26308 |
| 5 | – | inactive | Dlip1 (GeneID 53580) | DRSC18460 |
